# Experimental data as given in PubChem BioAssay AID504834 (National Center for Advancing Translational Sciences (NCATS), 2011).
# The campaign covered roughly 320,000 compounds. About 22,000 (6.9%) were called active. Inconclusive means that the source gave no clear call. Such entries were picked first, then a sample of the others. The call rests on the fitted dose curve; in most records, active means well fitted inhibition curve with a large enough effect; inconclusive means small, poorly fitted or top-dose-only effect, or another doubt; inactive means no such curve, though single readings can be large or run the other way. Potencies of inconclusive entries are doubtful fits and often do not repeat.
# Assay: Primary qHTS for delayed death inhibitors of the malarial parasite plastid, 96 hour incubation
# Conditions: P. falciparum luciferase reporter growth; series mostly up to 28.7 µM; activity change, negative = inhibition: at the top concentration
# In short: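 Compounds incubated with erythrocytes infected by luciferase-expressing P. falciparum (2% hematocrit, 0.05% parasitemia final) for 96 hours, 37 C in 5% CO2. Growth inhibition scored as decreased luciferase luminescence.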
# On the % scale 0 is the no-effect control and ±100 the full control effect; potency means the concentration at half of the fitted maximal effect.
SMILES,"activity change, negative = inhibition",Potency
CC(C(=O)NC1CCCC1)N1CCN(Cc2ccccc2)CC1 (stereo not drawn),inactive: 75%,
COc1cccc(CNCCSc2nnnn2C)c1OC,inactive: 23.8%,
C=CCOC(=O)/C(=C\C=C\c1ccccc1)NC(=O)c1ccccc1,,"inconclusive: 18.5 µM [inhibitor, single point]"
CC(=O)N(CCc1cccc(C)c1)Cc1cc2ccc(C)cc2[nH]c1=O,,active: 0.0738 µM
CCC(=O)N1c2ccc(S(=O)(=O)NCCc3ccc(C)cc3)cc2CC1C (stereo not drawn),,"inconclusive: 9.28 µM [inhibitor, partial curve, poor fit]"
O=C(Nc1ccccc1)C1=C(O)CC(c2ccc(Cl)cc2)N2CCN=C12 (stereo not drawn),,"inconclusive: 4.15 µM [inhibitor, partial curve, poor fit]"
COc1ccc(-c2sc3cc4c(cc3c2C#CCO)OCO4)cc1,,"inconclusive: 5.86 µM [inhibitor, single point]"
CCOc1ccc(/C=N/NC(=O)c2ccoc2C)cc1OC,,"inconclusive: 1.65 µM [inhibitor, partial curve, poor fit]"
CCOc1ccccc1C(=O)N(CN1CCCC1=O)c1ccc(C)c(Cl)c1,,"inconclusive: 5.86 µM [inhibitor, partial curve]"
O=C(Cc1ccc(S(=O)(=O)N2CCOCC2)s1)Nc1cc(C(F)(F)F)ccc1N1CCCC1,,"inconclusive: 11.7 µM [inhibitor, partial curve, poor fit]"
CCCCN(C)Cc1cc(=O)oc2cc3c(cc12)CCCC3,,"inconclusive: 18.5 µM [inhibitor, single point]"
O=C(c1cccc(OC2CCN(Cc3cccc(OCCO)c3)CC2)c1)N1CCCC1,,active: 8.28 µM
COc1ccccc1NC(=S)N(Cc1ccc(C)cc1)Cc1cccnc1,,"inconclusive: 18.5 µM [inhibitor, single point]"
CC1(C)CC(=NOC(=O)c2ccccc2)CC(C)(C)N1,inactive: -0.728%,
CC(=O)c1ccc(-n2c(CCC(=O)O)ccc2-c2ccc(C)cc2)cc1,inactive: -22.6%,
O=C(CCc1ccccc1Cl)N1CCN(S(=O)(=O)c2ccccc2)CC1,,"inconclusive: 10.4 µM [inhibitor, partial curve, poor fit]"
CCCC(=O)NC(=S)Nc1nc(-c2ccc(OC)cc2)cs1,inactive: 13.4%,
CCN(CC(=O)Nc1ccc(OC)cc1)C(=O)Cc1coc2cc(C)c(C)cc12,,"inconclusive: 8.28 µM [inhibitor, partial curve, poor fit]"
COc1cc(NC(=O)CCN2CCN(C/C=C/c3ccccc3)CC2)cc(OC)c1,inactive: 0%,
Cc1cc(-c2n[nH]c(=S)n2-c2ccccc2C)cs1,inactive: -19.8%,
Cc1ccc(/C=C/C(=O)NCc2ccncc2)cc1,,"inconclusive: 11.7 µM [inhibitor, single point]"
O=C(CSc1nc2ccccc2o1)N1CCN(S(=O)(=O)c2ccc3ccccc3c2)CC1,,"inconclusive: 11.7 µM [inhibitor, single point]"
CCN(c1ccccc1)S(=O)(=O)c1ccc(Cl)c(C(=O)N2CCCC2)c1,,"inconclusive: 18.5 µM [inhibitor, single point]"

SMILES,"activity change, negative = inhibition",Potency
COc1cccc([C@@H]2CC=C(C(=O)O)[C@H](c3ccc(Cl)cc3)N2S(=O)(=O)c2ccc(C)cc2)c1,,active: 9.28 µM
COc1ccc(-c2cc3c(=O)n(CC(=O)NCCCN4CCN(Cc5ccccc5)CC4)ncn3n2)cc1,inactive: -1.54%,
CCSc1nnc(-c2cccc(S(=O)(=O)N(C)C)c2)n1-c1cc(OC)ccc1OC,,"inconclusive: 10.4 µM [inhibitor, single point]"
C#CC[N+]1(CC#Cc2ccc(C)cc2)CCCCC1,,"inconclusive: 0.208 µM [inhibitor, full curve, poor fit]"
CCc1noc(C)c1C(=O)N1CCN(S(=O)(=O)c2ccc(Br)cc2Cl)CC1,,"inconclusive: 10.4 µM [inhibitor, single point]"
O=C(CSc1nnc(Cc2ccccc2)o1)c1ccccc1,,"inconclusive: 13.1 µM [inhibitor, single point]"
C=CCNC(=S)NNC(=O)c1ccc(Br)cc1,inactive: 9.14%,
S=C1NC[C@H](Cc2ccccc2)N1CCCCC1CCCCC1,,"inconclusive: 1.85 µM [inhibitor, full curve]"
COc1cc(CNCCc2ccc3c(c2)OCO3)ccc1O,,"inconclusive: 16.5 µM [inhibitor, partial curve, poor fit]"
O=C(NC1CCCC1)C(Cc1ccccc1)n1cccc1 (stereo not drawn),,"inconclusive: 16.5 µM [inhibitor, single point]"
CC1CCCN(S(=O)(=O)c2ccc(NC(=O)C3CC(=O)N(c4ccccc4)C3)cc2)C1 (stereo not drawn),,active: 9.28 µM
O=C(c1ccc(F)cc1)C1CCN(C(=O)c2c(F)cccc2F)CC1,,"inconclusive: 5.22 µM [inhibitor, partial curve]"
Cc1cc(C)c(NC(=O)c2cc(=O)c3ccccc3o2)c(C)c1,,"inconclusive: 18.5 µM [inhibitor, single point]"
COc1cc(OC)cc(C(=O)Nc2ccc(Br)cc2C(=O)c2ccccc2)c1,,"inconclusive: 18.5 µM [inhibitor, single point]"
CC/C(=N\NC(=O)c1csc(C)c1C)c1cccs1,inactive: 86.6%,
Cc1ccc2c(CN3CCCc4ccccc43)cc(=O)oc2c1C,inactive: -16.9%,
CN(C)C=Nc1ncc2c([nH]c3ccccc32)c1C#N,,"inconclusive: 13.1 µM [inhibitor, single point]"
CCC(CC)=N/N=C/c1c(O)n(CC)c2cc(C3=NNC(=O)CC3)ccc12,,"inconclusive: 18.5 µM [inhibitor, single point]"
COc1ccccc1C(=O)Nc1c2c(nn1-c1cccc(C)c1C)CS(=O)(=O)C2,,"inconclusive: 1.65 µM [inhibitor, partial curve, poor fit]"
COc1cccc(/C=N/Nc2nn3cnnc3c3ccccc23)c1O,,active: 0.329 µM
Cc1cccc2[nH]c(-c3ccc(NC(=O)c4ccco4)cc3)nc12,,active: 0.415 µM
CCOC(=O)c1ccc(N2CCN(c3ccc(F)cc3)CC2)c(NC(=O)Nc2cccc(OC)c2)c1,,"inconclusive: 13.1 µM [inhibitor, single point]"
CCOc1ccc(Oc2c(/C=N/NC(C)=O)c(C)nn2-c2ccccc2)cc1,,"inconclusive: 13.1 µM [inhibitor, partial curve]"

SMILES,"activity change, negative = inhibition",Potency
O=C1C2CC=CCC2C(=O)N1c1ccc(NCCc2ccc(O)cc2)c([N+](=O)[O-])c1 (stereo not drawn),,"inconclusive: 18.5 µM [inhibitor, single point]"
Cc1cc2nc(N)sc2cc1C,inactive: 2.31%,
CCCN1CCC(NC(=O)Cc2ccc(C)cc2)CC1,,"inconclusive: 18.5 µM [inhibitor, single point]"
CCCOC(=O)Oc1ccc2c(=O)c(Oc3cc(C)cc(C)c3)coc2c1,,"inconclusive: 14.7 µM [inhibitor, single point]"
CCOc1ccccc1N(CC(=O)N1CCCC1)S(C)(=O)=O,inactive: -6.22%,
O=C(CN1C(=O)c2ccccc2C1=O)NCCc1c[nH]c2ccc(Cl)cc12,,"inconclusive: 18.5 µM [inhibitor, single point]"
CCOC(=O)c1cc(CC)sc1NC(=O)Cc1ccsc1,,active: 3.29 µM
COc1ccc(C(=O)C(Cc2cc(C(C)=O)ccc2OC)N2CCCC2)cc1 (stereo not drawn),,"inconclusive: 11.7 µM [inhibitor, single point]"
CC(C)(C)OC(=O)N1Cc2ccccc2C[C@H]1C(=O)NC1CCCC1,,"inconclusive: 7.38 µM [inhibitor, partial curve]"
CC(C)c1c(O)nc(SCc2ccc(F)cc2)[nH]c1=O,,"inconclusive: 18.5 µM [inhibitor, single point]"
N#Cc1c(N)nc2c(c1-c1ccncc1)CCCC2,,"inconclusive: 18.5 µM [inhibitor, single point]"
COCCNC(=S)N1CCN(Cc2ccc3c(c2)OCO3)CC1,,"inconclusive: 20.8 µM [inhibitor, partial curve, poor fit]"
CCCn1nc(C(=O)Nc2ccc3c(c2)OCO3)c2ccccc2c1=O,,"inconclusive: 10.4 µM [inhibitor, partial curve, poor fit]"
O=C(CSc1nc2ccc([N+](=O)[O-])cc2[nH]1)c1ccc2ccccc2c1,,"inconclusive: 0.131 µM [inhibitor, full curve, poor fit]"
O=C1C(Nc2ccccc2)=C(NS(=O)(=O)c2ccccc2)C(=O)c2ccccc21,,active: 4.15 µM
Cc1ccc(-n2nc3c(=O)n(CCCC(=O)N4CCC(C(N)=O)CC4)nc(C)c3c2C)cc1,,"inconclusive: 18.5 µM [inhibitor, single point]"
N#CCC(N)=C(C#N)C#N,,"inconclusive: 5.22 µM [inhibitor, partial curve]"
CCc1ccc(NC(=O)C2CCCN(S(=O)(=O)c3ccc4c(c3)CCCN4C(C)=O)C2)cc1 (stereo not drawn),,"inconclusive: 18.5 µM [inhibitor, single point]"
CCOC(=O)c1c2n(c3ccc(OC(C)=O)cc13)CCC2,,"inconclusive: 18.5 µM [inhibitor, single point]"
CCn1c(=O)n(CC)c2cc(N3CCCC3)c(NC(=O)c3cccc(C)c3)cc21,,"inconclusive: 11.7 µM [inhibitor, partial curve, poor fit]"
COc1ccc(CCNC(=O)c2ccc(CS(=O)Cc3ccc(Cl)cc3)o2)cc1OC (stereo not drawn),,"inconclusive: 4.15 µM [inhibitor, single point]"
COc1ccc(Nc2nc(-c3cccc([N+](=O)[O-])c3)nc3ccccc23)c(OC)c1,,"inconclusive: 11.7 µM [inhibitor, single point]"

# At a glance, 21 of the compounds above:
SMILES,"activity change, negative = inhibition",Potency
CCOC(=O)c1ccc(N2CCN(c3ccc(F)cc3)CC2)c(NC(=O)Nc2cccc(OC)c2)c1,,"inconclusive: 13.1 µM [inhibitor, single point]"
CCOc1ccc(Oc2c(/C=N/NC(C)=O)c(C)nn2-c2ccccc2)cc1,,"inconclusive: 13.1 µM [inhibitor, partial curve]"
O=C1C2CC=CCC2C(=O)N1c1ccc(NCCc2ccc(O)cc2)c([N+](=O)[O-])c1 (stereo not drawn),,"inconclusive: 18.5 µM [inhibitor, single point]"
Cc1cc2nc(N)sc2cc1C,inactive: 2.31%,
CCCN1CCC(NC(=O)Cc2ccc(C)cc2)CC1,,"inconclusive: 18.5 µM [inhibitor, single point]"
CCCOC(=O)Oc1ccc2c(=O)c(Oc3cc(C)cc(C)c3)coc2c1,,"inconclusive: 14.7 µM [inhibitor, single point]"
CCOc1ccccc1N(CC(=O)N1CCCC1)S(C)(=O)=O,inactive: -6.22%,
O=C(CN1C(=O)c2ccccc2C1=O)NCCc1c[nH]c2ccc(Cl)cc12,,"inconclusive: 18.5 µM [inhibitor, single point]"
CCOC(=O)c1cc(CC)sc1NC(=O)Cc1ccsc1,,active: 3.29 µM
COc1ccc(C(=O)C(Cc2cc(C(C)=O)ccc2OC)N2CCCC2)cc1 (stereo not drawn),,"inconclusive: 11.7 µM [inhibitor, single point]"
CC(C)(C)OC(=O)N1Cc2ccccc2C[C@H]1C(=O)NC1CCCC1,,"inconclusive: 7.38 µM [inhibitor, partial curve]"
CC(C)c1c(O)nc(SCc2ccc(F)cc2)[nH]c1=O,,"inconclusive: 18.5 µM [inhibitor, single point]"
N#Cc1c(N)nc2c(c1-c1ccncc1)CCCC2,,"inconclusive: 18.5 µM [inhibitor, single point]"
COCCNC(=S)N1CCN(Cc2ccc3c(c2)OCO3)CC1,,"inconclusive: 20.8 µM [inhibitor, partial curve, poor fit]"
CCCn1nc(C(=O)Nc2ccc3c(c2)OCO3)c2ccccc2c1=O,,"inconclusive: 10.4 µM [inhibitor, partial curve, poor fit]"
O=C(CSc1nc2ccc([N+](=O)[O-])cc2[nH]1)c1ccc2ccccc2c1,,"inconclusive: 0.131 µM [inhibitor, full curve, poor fit]"
O=C1C(Nc2ccccc2)=C(NS(=O)(=O)c2ccccc2)C(=O)c2ccccc21,,active: 4.15 µM
Cc1ccc(-n2nc3c(=O)n(CCCC(=O)N4CCC(C(N)=O)CC4)nc(C)c3c2C)cc1,,"inconclusive: 18.5 µM [inhibitor, single point]"
N#CCC(N)=C(C#N)C#N,,"inconclusive: 5.22 µM [inhibitor, partial curve]"
CCc1ccc(NC(=O)C2CCCN(S(=O)(=O)c3ccc4c(c3)CCCN4C(C)=O)C2)cc1 (stereo not drawn),,"inconclusive: 18.5 µM [inhibitor, single point]"
CCOC(=O)c1c2n(c3ccc(OC(C)=O)cc13)CCC2,,"inconclusive: 18.5 µM [inhibitor, single point]"
